Test results as given in article PMC6705879.
No constants are given. Whether binding was seen depends on the method and setting. In cells and extracts the contact can be indirect. Some entries that bind do so weakly or less than the wild type. For some assays here: Where a sequence is shown, tags or fusion partners need not be part of it. Values belong to the binder of their own block, whether it stands above or below them.

Tests used:
HA-tagged 90K = biological target: T1, HA-tagged 90K (UniProt Q08380); assay: co-IP; 293T cells transfected with the indicated plasmids for 48 hours; Nonidet P-40 lysis buffer (150 mM NaCl, 1 mM EDTA, 1% Nonidet P-40); antibody 4 h at 4 °C, protein A/G agarose; washed three times with lysis buffer containing 500 mM NaCl
T1 sequence: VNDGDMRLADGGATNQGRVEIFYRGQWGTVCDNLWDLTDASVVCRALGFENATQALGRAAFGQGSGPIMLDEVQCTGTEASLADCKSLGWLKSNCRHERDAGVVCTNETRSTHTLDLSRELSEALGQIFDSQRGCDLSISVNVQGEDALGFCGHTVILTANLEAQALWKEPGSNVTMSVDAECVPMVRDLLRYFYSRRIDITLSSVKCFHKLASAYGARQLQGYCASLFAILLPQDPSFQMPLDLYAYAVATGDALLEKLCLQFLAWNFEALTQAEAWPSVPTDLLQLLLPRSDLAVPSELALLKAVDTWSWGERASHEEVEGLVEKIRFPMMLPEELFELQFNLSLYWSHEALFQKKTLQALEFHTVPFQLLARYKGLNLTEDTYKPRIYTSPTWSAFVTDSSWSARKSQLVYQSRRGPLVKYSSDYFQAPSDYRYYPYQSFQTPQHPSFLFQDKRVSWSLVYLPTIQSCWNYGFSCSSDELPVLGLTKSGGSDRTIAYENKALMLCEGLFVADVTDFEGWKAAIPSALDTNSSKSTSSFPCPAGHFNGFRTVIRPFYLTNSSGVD

HA-tagged TBK1 = biological target: T2, HA-tagged TBK1 (UniProt Q9UHD2); assay: as above
T2 sequence: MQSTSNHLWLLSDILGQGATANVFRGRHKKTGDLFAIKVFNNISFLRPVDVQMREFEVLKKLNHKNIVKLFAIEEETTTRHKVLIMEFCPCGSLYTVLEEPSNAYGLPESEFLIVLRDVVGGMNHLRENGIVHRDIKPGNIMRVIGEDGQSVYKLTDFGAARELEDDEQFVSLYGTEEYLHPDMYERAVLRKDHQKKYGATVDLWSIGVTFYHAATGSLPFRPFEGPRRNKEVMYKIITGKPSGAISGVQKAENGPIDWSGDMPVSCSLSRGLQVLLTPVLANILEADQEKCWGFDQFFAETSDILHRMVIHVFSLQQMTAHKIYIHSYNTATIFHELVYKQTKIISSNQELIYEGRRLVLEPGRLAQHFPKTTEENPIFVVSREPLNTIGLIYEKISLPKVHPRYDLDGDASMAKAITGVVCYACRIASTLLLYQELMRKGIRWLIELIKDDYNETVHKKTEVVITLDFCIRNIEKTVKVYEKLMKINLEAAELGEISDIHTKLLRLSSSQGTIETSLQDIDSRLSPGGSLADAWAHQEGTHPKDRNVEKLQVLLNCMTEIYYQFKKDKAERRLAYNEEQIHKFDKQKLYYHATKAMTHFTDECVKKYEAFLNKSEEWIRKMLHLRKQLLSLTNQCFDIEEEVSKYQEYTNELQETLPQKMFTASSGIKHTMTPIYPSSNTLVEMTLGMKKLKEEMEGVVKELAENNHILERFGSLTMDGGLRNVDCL

Flag-tagged TAK1 = biological target: T3, Flag-tagged TAK1 (UniProt O43318); assay: as above
T3 sequence: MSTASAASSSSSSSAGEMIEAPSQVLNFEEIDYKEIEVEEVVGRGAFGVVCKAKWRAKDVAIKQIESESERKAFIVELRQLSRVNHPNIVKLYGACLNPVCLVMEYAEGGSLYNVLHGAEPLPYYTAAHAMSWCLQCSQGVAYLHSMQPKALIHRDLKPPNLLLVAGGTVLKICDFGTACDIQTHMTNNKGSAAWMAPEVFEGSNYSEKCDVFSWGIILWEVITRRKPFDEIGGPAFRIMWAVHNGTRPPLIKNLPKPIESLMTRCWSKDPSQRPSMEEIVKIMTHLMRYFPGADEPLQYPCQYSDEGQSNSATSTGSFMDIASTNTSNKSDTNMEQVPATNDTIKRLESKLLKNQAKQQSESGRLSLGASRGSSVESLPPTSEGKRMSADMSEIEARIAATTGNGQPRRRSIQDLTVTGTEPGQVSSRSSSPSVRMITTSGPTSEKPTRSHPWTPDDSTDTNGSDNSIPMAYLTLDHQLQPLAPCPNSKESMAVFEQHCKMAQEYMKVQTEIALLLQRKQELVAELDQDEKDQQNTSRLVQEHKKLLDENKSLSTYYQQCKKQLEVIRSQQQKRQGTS

[1] = biological target: T4, TAK1 (transfected, tag not given) (UniProt O43318); assay: as above
T4 sequence: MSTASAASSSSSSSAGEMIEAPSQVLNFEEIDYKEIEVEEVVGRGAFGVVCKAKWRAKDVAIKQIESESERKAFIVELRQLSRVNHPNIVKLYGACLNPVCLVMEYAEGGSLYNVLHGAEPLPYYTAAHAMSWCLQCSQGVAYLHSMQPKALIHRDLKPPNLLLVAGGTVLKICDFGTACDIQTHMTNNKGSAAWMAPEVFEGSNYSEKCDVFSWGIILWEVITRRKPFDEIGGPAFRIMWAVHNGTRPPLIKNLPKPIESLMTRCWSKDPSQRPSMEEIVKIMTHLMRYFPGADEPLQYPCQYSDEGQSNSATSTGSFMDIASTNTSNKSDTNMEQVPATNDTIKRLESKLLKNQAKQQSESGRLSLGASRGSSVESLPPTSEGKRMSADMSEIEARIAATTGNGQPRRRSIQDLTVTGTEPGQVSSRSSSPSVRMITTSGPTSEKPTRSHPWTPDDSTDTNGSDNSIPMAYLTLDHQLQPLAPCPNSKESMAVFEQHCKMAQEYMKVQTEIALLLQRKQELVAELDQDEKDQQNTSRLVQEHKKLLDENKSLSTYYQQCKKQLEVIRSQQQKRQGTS

[2] = biological target: T5, TAK1 (endogenous) (human (endogenous in A549 and 293T)) (UniProt O43318); assay: co-IP; endogenous proteins of A549 cells, infected with SeV for the indicated times or left uninfected; Nonidet P-40 lysis buffer, protein A/G agarose, washes with 500 mM NaCl
T5 sequence: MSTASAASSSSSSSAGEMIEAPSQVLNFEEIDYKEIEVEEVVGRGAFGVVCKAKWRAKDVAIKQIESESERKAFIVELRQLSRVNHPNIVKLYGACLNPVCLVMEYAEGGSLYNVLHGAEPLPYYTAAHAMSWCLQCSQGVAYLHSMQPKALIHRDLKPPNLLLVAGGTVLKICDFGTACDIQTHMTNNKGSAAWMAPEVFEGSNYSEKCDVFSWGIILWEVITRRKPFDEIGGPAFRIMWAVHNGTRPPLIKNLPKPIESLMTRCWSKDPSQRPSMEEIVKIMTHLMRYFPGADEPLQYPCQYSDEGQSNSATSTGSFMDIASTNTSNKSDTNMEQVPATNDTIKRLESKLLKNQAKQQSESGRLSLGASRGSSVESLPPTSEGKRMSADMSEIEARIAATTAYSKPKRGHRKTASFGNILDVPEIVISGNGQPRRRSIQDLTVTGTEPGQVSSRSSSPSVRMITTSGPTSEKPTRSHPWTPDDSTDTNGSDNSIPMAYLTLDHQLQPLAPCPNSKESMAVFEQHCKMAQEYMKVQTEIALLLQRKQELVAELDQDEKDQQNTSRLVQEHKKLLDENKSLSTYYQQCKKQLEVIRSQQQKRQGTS

binding (HA-tagged 90K): binds
B1: TAK1 (transfected, tag not stated in the text) (protein, UniProt O43318-2 1-579)
chain: MSTASAASSSSSSSAGEMIEAPSQVLNFEEIDYKEIEVEEVVGRGAFGVVCKAKWRAKDVAIKQIESESERKAFIVELRQLSRVNHPNIVKLYGACLNPVCLVMEYAEGGSLYNVLHGAEPLPYYTAAHAMSWCLQCSQGVAYLHSMQPKALIHRDLKPPNLLLVAGGTVLKICDFGTACDIQTHMTNNKGSAAWMAPEVFEGSNYSEKCDVFSWGIILWEVITRRKPFDEIGGPAFRIMWAVHNGTRPPLIKNLPKPIESLMTRCWSKDPSQRPSMEEIVKIMTHLMRYFPGADEPLQYPCQYSDEGQSNSATSTGSFMDIASTNTSNKSDTNMEQVPATNDTIKRLESKLLKNQAKQQSESGRLSLGASRGSSVESLPPTSEGKRMSADMSEIEARIAATTGNGQPRRRSIQDLTVTGTEPGQVSSRSSSPSVRMITTSGPTSEKPTRSHPWTPDDSTDTNGSDNSIPMAYLTLDHQLQPLAPCPNSKESMAVFEQHCKMAQEYMKVQTEIALLLQRKQELVAELDQDEKDQQNTSRLVQEHKKLLDENKSLSTYYQQCKKQLEVIRSQQQKRQGTS

binding (HA-tagged TBK1): binds | binding (Flag-tagged TAK1): binds
B2: Myc-tagged 90K (galectin 3 binding protein, LGALS3BP) (protein, UniProt Q08380 19-585)
chain: VNDGDMRLADGGATNQGRVEIFYRGQWGTVCDNLWDLTDASVVCRALGFENATQALGRAAFGQGSGPIMLDEVQCTGTEASLADCKSLGWLKSNCRHERDAGVVCTNETRSTHTLDLSRELSEALGQIFDSQRGCDLSISVNVQGEDALGFCGHTVILTANLEAQALWKEPGSNVTMSVDAECVPMVRDLLRYFYSRRIDITLSSVKCFHKLASAYGARQLQGYCASLFAILLPQDPSFQMPLDLYAYAVATGDALLEKLCLQFLAWNFEALTQAEAWPSVPTDLLQLLLPRSDLAVPSELALLKAVDTWSWGERASHEEVEGLVEKIRFPMMLPEELFELQFNLSLYWSHEALFQKKTLQALEFHTVPFQLLARYKGLNLTEDTYKPRIYTSPTWSAFVTDSSWSARKSQLVYQSRRGPLVKYSSDYFQAPSDYRYYPYQSFQTPQHPSFLFQDKRVSWSLVYLPTIQSCWNYGFSCSSDELPVLGLTKSGGSDRTIAYENKALMLCEGLFVADVTDFEGWKAAIPSALDTNSSKSTSSFPCPAGHFNGFRTVIRPFYLTNSSGVD

binding [1]: binds
B3: HA-tagged 90K (protein, UniProt Q08380 19-585)
chain: VNDGDMRLADGGATNQGRVEIFYRGQWGTVCDNLWDLTDASVVCRALGFENATQALGRAAFGQGSGPIMLDEVQCTGTEASLADCKSLGWLKSNCRHERDAGVVCTNETRSTHTLDLSRELSEALGQIFDSQRGCDLSISVNVQGEDALGFCGHTVILTANLEAQALWKEPGSNVTMSVDAECVPMVRDLLRYFYSRRIDITLSSVKCFHKLASAYGARQLQGYCASLFAILLPQDPSFQMPLDLYAYAVATGDALLEKLCLQFLAWNFEALTQAEAWPSVPTDLLQLLLPRSDLAVPSELALLKAVDTWSWGERASHEEVEGLVEKIRFPMMLPEELFELQFNLSLYWSHEALFQKKTLQALEFHTVPFQLLARYKGLNLTEDTYKPRIYTSPTWSAFVTDSSWSARKSQLVYQSRRGPLVKYSSDYFQAPSDYRYYPYQSFQTPQHPSFLFQDKRVSWSLVYLPTIQSCWNYGFSCSSDELPVLGLTKSGGSDRTIAYENKALMLCEGLFVADVTDFEGWKAAIPSALDTNSSKSTSSFPCPAGHFNGFRTVIRPFYLTNSSGVD

binding [2]: binds
B4: 90K (endogenous) (protein, UniProt Q08380 19-585)
chain: VNDGDMRLADGGATNQGRVEIFYRGQWGTVCDNLWDLTDASVVCRALGFENATQALGRAAFGQGSGPIMLDEVQCTGTEASLADCKSLGWLKSNCRHERDAGVVCTNETRSTHTLDLSRELSEALGQIFDSQRGCDLSISVNVQGEDALGFCGHTVILTANLEAQALWKEPGSNVTMSVDAECVPMVRDLLRYFYSRRIDITLSSVKCFHKLASAYGARQLQGYCASLFAILLPQDPSFQMPLDLYAYAVATGDALLEKLCLQFLAWNFEALTQAEAWPSVPTDLLQLLLPRSDLAVPSELALLKAVDTWSWGERASHEEVEGLVEKIRFPMMLPEELFELQFNLSLYWSHEALFQKKTLQALEFHTVPFQLLARYKGLNLTEDTYKPRIYTSPTWSAFVTDSSWSARKSQLVYQSRRGPLVKYSSDYFQAPSDYRYYPYQSFQTPQHPSFLFQDKRVSWSLVYLPTIQSCWNYGFSCSSDELPVLGLTKSGGSDRTIAYENKALMLCEGLFVADVTDFEGWKAAIPSALDTNSSKSTSSFPCPAGHFNGFRTVIRPFYLTNSSGVD
